Measured values from patent US9102678B2, “Compounds and methods for inhibiting mitotic progression” (Millennium Pharmaceuticals, Inc., priority 2004, dated 2015).
Some results were stated once for a whole list of compounds, not compound by compound.

Protein sequences, listed by entry. Tags and fused reporters are not part of them. Lines headed by an entry give the natural chain unless they say otherwise; changes in a name come on top.
UniProt P97477: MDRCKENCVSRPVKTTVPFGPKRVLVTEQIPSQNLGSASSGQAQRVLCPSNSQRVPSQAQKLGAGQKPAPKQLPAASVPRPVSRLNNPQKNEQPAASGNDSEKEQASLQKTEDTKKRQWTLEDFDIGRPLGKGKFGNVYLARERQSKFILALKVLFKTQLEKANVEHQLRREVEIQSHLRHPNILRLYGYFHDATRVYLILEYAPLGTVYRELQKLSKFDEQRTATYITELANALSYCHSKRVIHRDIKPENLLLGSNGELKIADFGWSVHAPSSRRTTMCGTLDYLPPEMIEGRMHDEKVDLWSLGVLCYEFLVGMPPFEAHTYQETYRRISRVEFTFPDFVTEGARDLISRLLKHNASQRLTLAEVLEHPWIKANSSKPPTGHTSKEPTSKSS

Target: T1, recombinant murine Aurora A enzyme (Mus musculus, UniProt P97477)
T1 construct: hexahistidine (His6) (N); made in house; host or cells: insect cells, baculovirus (Bac-to-Bac, Invitrogen)
Experiment: Aurora A DELFIA Kinase Assay
Format: biochemical
Conditions: 250 μM ATP, threshold less than or equal to 1.0 μM
Description: Recombinant mouse Aurora A with an amino-terminus hexahistidine tag (His-Aurora A) was expressed using a standard baculovirus vector and insect cell expression system (Bac-to-Bac®, Invitrogen).
Soluble, recombinant mouse Aurora A was purified from insect cells using Ni-NTA agarose (Qiagen) as described by the manufacturer and further purified over an S75 size exclusion column (Amersham Pharmacia Biotech).
Aurora A DELFIA® Kinase Assay
The enzymatic reaction mixture, with and without Aurora inhibitors, was incubated for 15 minutes at room temperature before termination with 100 μL of stop buffer (1% BSA, 0.05% Surfact-AMPS-20, and 100 mM EDTA). A total of 100 μL of the enzyme reaction mixture was transferred to wells of a Neutravidin-coated 96-well plate (Pierce) and incubated at room temperature for 30 minutes. The wells were washed with wash buffer (25 mM Tris, 150 mM sodium chloride, and 0.1% Tween 20) and incubated for 1 hour with 100 μL of antibody reaction mixture containing 1% BSA, 0.05% Surfact-AMPS-20, anti-phospho-PKA rabbit polyclonal antibody (1:2000, New England Biolabs), and europium labeled anti-rabbit IgG (1:2000, Perkin Elmer). The wells were washed and then the bound europium was liberated using 100 μL of Enhancement Solution (Perkin Elmer). Quantification of europium was done using a Wallac™ EnVision (Perkin Elmer).

| Compound | IC50 [µM] |
| --- | --- |
| CNC1CCN(C(=O)c2ccc(Nc3ncc4c(n3)-c3ccc(Cl)cc3C(c3ccccn3)=NC4)cc2)C1 (stereo not shown) [Compound I-315, 9-chloro-N-(4-{[3-(methylamino)pyrrolidin-1-yl]carbonyl}phenyl)-7-pyridin-2-yl-5H-pyrimido[5,4-d][2]benzazepin-2-amine] | ≤ 1 |
| CNCCN(C)C(=O)c1ccc(Nc2ncc3c(n2)-c2ccc(Cl)cc2C(c2ccccc2F)=NC3)cc1 [Compound I-3, 4-[9-Chloro-7-(2-fluoro-phenyl)-5H-benzo[c]pyrimido[4,5-e]azepin-2-ylamino]-N-methyl-N-(2-methylamino-ethyl)-benzamide] | ≤ 1 |
| CNC1CCN(C(=O)c2cnc(Nc3ncc4c(n3)-c3ccc(Cl)cc3C(c3c(F)cccc3F)=NC4)o2)C1 (stereo not shown) [Compound I-370, 9-chloro-7-(2,6-difluorophenyl)-N-(5-{[3-(methylamino)pyrrolidin-1-yl]carbonyl}-1,3-oxazol-2-yl)-5H-pyrimido[5,4-d][2]benzazepin-2-amine] | ≤ 1 |
| O=C(c1ccc(Nc2ncc3c(n2)-c2ccc(Cl)cc2C(c2ccccc2F)=NC3)cc1)N1CCN(CCN2CCCC2)CC1 [Compound I-171, 9-Chloro-7-(2-fluorophenyl)-N-(4-{[4-(2-pyrrolidin-1-ylethyl)piperazin-1-yl]carbonyl}phenyl)-5H-pyrimido[5,4-d][2]benzazepin-2-amine] | ≤ 1 |
| O=C(O)C1CCCN1C(=O)c1ccc(Nc2ncc3c(n2)-c2ccc(Cl)cc2C(c2ccccc2F)=NC3)cc1 (stereo not shown) [Compound I-112, 1-{4-[9-Chloro-7-(2-fluoro-phenyl)-5H-benzo[c]pyrimido[4,5-e]azepin-2-ylamino]-benzoyl}-pyrrolidine-2-carboxylic acid] | ≤ 1 |
| O=C(O)c1ccc(Nc2ncc3c(n2)-c2ccc(Cl)cc2C(c2ccccn2)=NC3)cc1 [Compound I-279, 4-[(9-chloro-7-pyridin-2-yl-5H-pyrimido[5,4-d][2]benzazepin-2-yl)amino]benzoic acid] | ≤ 1 |
| CC1CN(C(=N)NC(=O)c2ccc(Nc3ncc4c(n3)-c3ccc(Cl)cc3C(c3c(F)cccc3F)=NC4)cc2)CC(C)N1 (stereo not shown) [Compound I-238, 4-{[9-chloro-7-(2,6-difluorophenyl)-5H-pyrimido[5,4-d][2]benzazepin-2-yl]amino}-N-[(3,5-dimethylpiperazin-1-yl)(imino)methyl]benzamide] | ≤ 1 |
| CNC(=O)c1csc(Nc2ncc3c(n2)-c2ccc(Cl)cc2C(c2c(F)cccc2F)=NC3)n1 [Compound I-355, 2-{[9-chloro-7-(2,6-difluorophenyl)-5H-pyrimido[5,4-d][2]benzazepin-2-yl]amino}-N-methyl-1,3-thiazole-4-carboxamide] | ≤ 1 |
| COc1ccc2c(c1)C(c1ccccc1F)=NCc1cnc(Nc3ccc(C(=O)N(CCO)CCO)cc3)nc1-2 [Compound I-95, 4-[7-(2-Fluoro-phenyl)-9-methoxy-5H-benzo[c]pyrimido[4,5-e]azepin-2-ylamino]-N,N-bis-(2-hydroxy-ethyl)-benzamide] | ≤ 1 |
| CC1CN(C(=N)c2ccc(Nc3ncc4c(n3)-c3ccc(Cl)cc3C(c3c(F)cccc3F)=NC4)cc2)CC(C)N1 (stereo not shown) [Compound I-251, [9-Chloro-7-(2,6-difluoro-phenyl)-5H-benzo[c]pyrimido[4,5-e]azepin-2-yl]-{4-[(3,5-dimethyl-piperazin-1-yl)-imino-methyl]-phenyl}-amine] | ≤ 1 |
| Cc1csc(Nc2ncc3c(n2)-c2ccc(Cl)cc2C(c2c(F)cccc2F)=NC3)n1 [Compound I-352, 9-chloro-7-(2,6-difluorophenyl)-N-(4-methyl-1,3-thiazol-2-yl)-5H-pyrimido[5,4-d][2]benzazepin-2-amine] | ≤ 1 |
| COc1ccc2c(c1)C(c1ccccc1F)=NCc1cnc(Nc3ccc(OC)c(OC)c3)nc1-2 [Compound I-138, (3,4-Dimethoxy-phenyl)-[7-(2-fluoro-phenyl)-9-methoxy-5H-benzo[c]pyrimido[4,5-e]azepin-2-yl]-amine] | ≤ 1 |
| NC(=O)c1ccc(Nc2ncc3c(n2)-c2ccc(Cl)cc2C(c2ccccc2Cl)=NC3)cc1 [Compound I-63, 4-[9-Chloro-7-(2-chloro-phenyl)-5H-benzo[c]pyrimido[4,5-e]azepin-2-ylamino]-benzamide] | ≤ 1 |
| NC(=O)C1(N)CCN(C(=O)c2ccc(Nc3ncc4c(n3)-c3ccc(Cl)cc3C(c3c(F)cccc3F)=NC4)cc2)CC1 [Compound I-350, 4-amino-1-(4-{[9-chloro-7-(2,6-difluorophenyl)-5H-pyrimido[5,4-d][2]benzazepin-2-yl]amino}benzoyl)piperidine-4-carboxamide] | ≤ 1 |
| COc1cccc(F)c1C1=NCc2cnc(Nc3ccc(C(=O)N4CCC(N)CC4)cc3)nc2-c2ccc(Cl)cc21 [Compound I-241, N-{4[(4-aminopiperidin-1-yl)carbonyl]phenyl}-9-chloro-7-(2-fluoro-6-methoxyphenyl)-5H-pyrimido[5,4-d][2]benzazepin-2-amine] | ≤ 1 |
| O=C(O)c1ccc(Nc2ncc3c(n2)-c2ccc(Cl)cc2C(c2ccccc2C(F)(F)F)=NC3)cc1 [Compound I-277, 4-({9-chloro-7-[2-(trifluoromethyl)phenyl]-5H-pyrimido[5,4-d][2]benzazepin-2-yl}amino)benzoic acid] | ≤ 1 |
| CNCCN(C)C(=O)c1cc(Nc2ncc3c(n2)-c2ccc(Cl)cc2C(c2c(F)cccc2F)=NC3)ccc1Cl [Compound I-283, 2-chloro-5-{[9-chloro-7-(2,6-difluorophenyl)-5H-pyrimido[5,4-d][2]benzazepin-2-yl]amino}-N-methyl-N-[2-(methylamino)ethyl]benzamide] | ≤ 1 |
| CNC1CCN(C(=O)c2ccc(Nc3ncc4c(n3)-c3ccc(Cl)cc3C(c3c(F)cccc3F)=NC4)cc2)C1 (stereo not shown) [Compound I-197, {4-[9-Chloro-7-(2,6-difluoro-phenyl)-5H-benzo[c]pyrimido[4,5-e]azepin-2-ylamino]-phenyl}-(3-methylamino-pyrrolidin-1-yl)-methanone] | ≤ 1 |
| O=C(O)C[C@H](NC(=O)c1ccc(Nc2ncc3c(n2)-c2ccc(Cl)cc2C(c2ccccc2F)=NC3)cc1)C(=O)O [Compound I-109, 2-{4-[9-Chloro-7-(2-fluoro-phenyl)-5H-benzo[c]pyrimido[4,5-e]azepin-2-ylamino]-benzoylamino}-succinic acid] | ≤ 1 |
| NC1CCN(C(=O)c2ccc(Nc3ncc4c(n3)-c3ccc(Cl)cc3C(c3ccccc3C(F)(F)F)=NC4)cc2)CC1 [Compound I-287, N-{4[(4-aminopiperidin-1-yl)carbonyl]phenyl}-9-chloro-7-[2-(trifluoromethyl)phenyl]-5H-pyrimido[5,4-d][2]benzazepin-2-amine] | ≤ 1 |
| O=C(NCCc1ccncc1)c1ccc(Nc2ncc3c(n2)-c2ccc(Cl)cc2C(c2ccccc2F)=NC3)cc1 [Compound I-150, 4-[9-Chloro-7-(2-fluoro-phenyl)-5H-benzo[c]pyrimido[4,5-e]azepin-2-ylamino]-N-(2-pyridin-4-yl-ethyl)-benzamide] | ≤ 1 |
| O=C(c1ccc(Nc2ncc3c(n2)-c2ccc(Cl)cc2C(c2ccccc2F)=NC3)cc1)N1CCOCC1 [Compound I-26, {4-[9-Chloro-7-(2-fluoro-phenyl)-5H-benzo[c]pyrimido[4,5-e]azepin-2-ylamino]-phenyl}-morpholin-4-yl-methanone] | ≤ 1 |
